These are yes or no findings as the source states them, for the method shown. A result given as binding can be weak or reduced; the word gives no strength.
Biological target: Calpain-1
Test: enzyme inhibition assay

Row | binding | Binder
1 | binds | IPPRYCELLC (Cys6 and Cys10 (i,i+4) linked by alpha,alpha'-meta-xylylene) [… (SEQ ID NO:80)]
2 | binds | LGKREVTIPPKYCELLC (Cys13 and Cys17 (i,i+4) linked by alpha,alpha'-meta-xylylene) [… (SEQ ID NO:67)]

— US20150133367A1
